The results in this text go back to PMC4482071.

In test [1] the target is T1, ScRpf2ΔC (ScRpf2 C-terminal deletion mutant; deletion of 90 C-terminal residues, 255–344) (Saccharomyces cerevisiae) (UniProt P36160).
T1 sequence: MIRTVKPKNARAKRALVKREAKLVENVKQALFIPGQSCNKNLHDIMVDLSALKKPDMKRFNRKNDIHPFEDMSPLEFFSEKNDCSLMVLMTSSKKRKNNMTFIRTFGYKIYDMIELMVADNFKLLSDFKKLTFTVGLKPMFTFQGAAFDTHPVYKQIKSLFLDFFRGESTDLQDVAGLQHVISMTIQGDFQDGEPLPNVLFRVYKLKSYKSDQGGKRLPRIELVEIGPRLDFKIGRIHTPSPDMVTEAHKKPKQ
The experiment in a line: co-purification of co-expressed proteins; His6-ScRpf2 variants co-expressed with ScRrs1ΔC; HisTrap HP column, then HiLoad 16/60 Superdex 200-pg column.

For test [2], the target named is T2, ScRpf2 full length (Saccharomyces cerevisiae) (UniProt P36160).
T2 sequence: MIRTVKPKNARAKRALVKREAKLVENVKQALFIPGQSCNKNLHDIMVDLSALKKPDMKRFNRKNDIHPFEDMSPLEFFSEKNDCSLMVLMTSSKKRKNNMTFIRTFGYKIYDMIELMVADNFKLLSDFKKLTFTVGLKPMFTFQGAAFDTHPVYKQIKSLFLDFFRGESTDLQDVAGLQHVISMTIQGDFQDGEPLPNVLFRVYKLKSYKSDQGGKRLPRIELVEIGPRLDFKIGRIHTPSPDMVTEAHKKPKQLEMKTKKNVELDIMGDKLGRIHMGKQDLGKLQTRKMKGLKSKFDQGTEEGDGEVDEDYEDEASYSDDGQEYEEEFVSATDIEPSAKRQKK
The experiment in a line: co-purification of co-expressed proteins; method of ref. 22 with a heparin column instead of Resource S and size-exclusion chromatography in 20 mM HEPES-NaOH pH 7.5, 300 mM NaCl, 10 mM MgCl2, 10% glycerol.

Test [3] addresses T1, ScRpf2ΔC (ScRpf2 C-terminal deletion mutant; deletion of 90 C-terminal residues, 255–344) (Saccharomyces cerevisiae). The test is described as above.

Results are given in words; binding and its absence hold for the method and conditions named. Some binding calls cover weakened binding; strength is not graded here. Where a sequence is shown, tags or fusion partners need not be part of it.

B1: ScRrs1ΔC (ScRrs1 C-terminal deletion mutant; deletion of 94 C-terminal residues, 110–293 as printed) (domain or fragment, UniProt Q08746 1-109)
chain: MSAEDYKNLPVTVEKPIPVVYDLGNLAAFDSNVLDKNDLDSSNARREEKIKSLTRDNVQLLINQLLSLPMKTTTESVGGTGGQSSVMTLLQLPDPTTDLPREKPLPKAK
Take B1: the binding result in test [1], in test [2] and in test [3] was “binds” each time.

B2: ScRrs1 full length (protein, UniProt Q08746 1-203)
chain: MSAEDYKNLPVTVEKPIPVVYDLGNLAAFDSNVLDKNDLDSSNARREEKIKSLTRDNVQLLINQLLSLPMKTTTESVGGTGGQSSVMTLLQLPDPTTDLPREKPLPKAKAMTKWEKFAAKKGIKPKERAGKMIYDEASGEWVPKWGYKGANKKLDDQWLVEVDDKVKGTDNELIDPRTLNRAERKRLVKKNEKQQRRNMKNAL
In the case of B2, the binding entry in test [2] and in test [3] was “binds” each time.
